Tests used:
[1] = Evaluation of application property (coatability); design: key: A: uniform coating was formed; B: coating was formed but contained plaque; C: coating was not formed; conditions: for coatability after dissolution into IPA: 20% in IPA; for coatability after dissolution into IPA / coatability after dissolution into PGME / coatability after dissolution into water: 1000 rpm; for coatability after dissolution into IPA:water = 7:3: 20% in IPA:water = 7:3, 1000 rpm; for coatability after dissolution into PGME: 20% in PGME; for coatability after dissolution into water: 20% in water
[2] = Evaluation of residue (film thickness after application and after bake)
[3] = Pattern collapse rate, removal of composition by reduced pressure
[4] = Evaluation of pattern collapse rate (composition removed by heating); conditions: relative to water
[5] = 20% in IPA:water = 7:3, heated at 250° C. for 180 seconds
[6] = 20% in IPA, heated at 250° C. for 180 seconds
[7] = 20% in IPA:water = 7:3, after application

Row | Compound | coatability after dissolution into IPA [1] | coatability after dissolution into IPA:water = 7:3 [1] | coatability after dissolution into PGME [1] | coatability after dissolution into water [1] | post-bake thickness of residual film 110° C./60 s ([2]; 20% in PGME) | post-bake thickness of residual film 130° C./60 s ([2]; 20% in PGME) | film thickness ([2]; 20% in PGME, after application) | pattern collapse rate ([3]; 24% in IPA, reduced pressure 0.8 kPa/304 s) | pattern collapse rate ([3]; 21% in IPA, reduced pressure 2.8 kPa/307 s) | pattern collapse rate [4, 5] | pattern collapse rate [4, 6] | post-bake thickness of residual film 110° C./60 s ([2]; 20% in IPA) | post-bake thickness of residual film 130° C./60 s ([2]; 20% in IPA) | film thickness ([2]; 20% in IPA, after application) | post-bake thickness of residual film 110° C./60 s ([2]; 20% in IPA:water = 7:3) | post-bake thickness of residual film 130° C./60 s ([2]; 20% in IPA:water = 7:3) | film thickness [2, 7] | pattern collapse rate ([3]; 22% in IPA, reduced pressure 6.6 kPa/300 s) | pattern collapse rate ([4]; liquid alone, no gap filling compound, not heated, dried by spin dry)
1 | Cc1ccc(O)c(O)c1 [4-methylcatechol] | A | A | A | A | 0.5 μm | 0 μm | 1.2 μm |  |  |  |  |  |  |  |  |  |  |  | 
2 | OC1CCCC(O)C1 (centres unmarked) [1,3-cyclohexanediol] | B | A | B | C | 0 μm | 0 μm | 1.3 μm | 0% |  |  |  |  |  |  |  |  |  |  | 
3 | OC1CC(O)CC(O)C1 (centres unmarked) [1,3,5-cyclohexanetriol] | B | A | A | C | 0.5 μm | 0 μm | 1.2 μm |  | 0% |  |  |  |  |  |  |  |  |  | 
4 | CC(CCO)CCO [3-methyl-1,5-pentanediol] | A | A | A | C | 0 μm | 0 μm | 1.2 μm |  |  |  |  |  |  |  |  |  |  |  | 
5 | CCC(O)CO (centres unmarked) [1,2-butanediol] | A | A | A | C | 0 μm | 0 μm | 1.2 μm |  |  | 4% | 7% | 0 μm | 0 μm | 1.2 μm | 0 μm | 0 μm | 1.2 μm |  | 
6 | OCCCCO [1,4-butanediol] | A | A | A | C | 0 μm | 0 μm | 1.2 μm |  |  | 3% | 6% | 0 μm | 0 μm | 1.2 μm | 0 μm | 0 μm | 1.2 μm | 0% | 
7 | CCCC(O)CO (centres unmarked) [1,2-pentanediol] | A | A | A | C | 0 μm | 0 μm | 1.2 μm |  |  | 6% | 4% | 0 μm | 0 μm | 1.2 μm | 0 μm | 0 μm | 1.2 μm |  | 
8 | CCCCC(O)CO (centres unmarked) [1,2-hexanediol] | A | A | A | C | 0 μm | 0 μm | 1.2 μm |  |  | 5% | 4% | 0 μm | 0 μm | 1.2 μm | 0 μm | 0 μm | 1.2 μm |  | 
9 | CC(C)O [IPA, isopropyl alcohol, reference compound] |  |  |  |  |  |  |  |  |  |  |  |  |  |  |  |  |  |  | 90%
